Data as given in patent publication US20150290192A1, “INHIBITORS OF BRUTON'S TYROSINE KINASE” (HOFFMANN-LA ROCHE INC., priority 2012, published 2015).
Some entries share one result that the patent states for a list of compounds.

Test system: human mast cells (FCεRI activation)
Test: Human mast cell activation, mediator release after FCεRI activation
Format: cell-based
Details: concentration dependent
Experimental: One million human cord blood derived CD34+ hematopoietic stem cells (HSCs) from different donors (AllCells #CB008F-S, Emeryville, Calif.) were cultured for eight weeks in a serum-free complete medium (StemPro-34 with supplements; Invitrogen, Carlsbad, Calif.), with recombinant h-SCF (100 ng/ml) and h-IL6 (50 ng/ml). During the first week of culturing, recombinant h-IL3 (10 ng/ml) was also included to support HSCs differentiation. After 8 weeks of culture, cells were stimulated with recombinant h-IL-4 (10 ng/ml) for 5 days. Confirmation of the mast cell differentiation process was routinely done by FACS to check for c-kit and FcsRI expression; differentiated cells were routinely more than 90% c-kit positive, FceRI positive. Differentiated mast cells were sensitized with […] anti-NP IgE (Serotec, Raleigh, N.C.) overnight at 37° C. Cells were washed and then treated with Compound 1 for 1 hour at 37° C. After treatment, cells were cross-linked with […] NP(30)-BSA (Biosearch Technologies, Novato Calif.) for 30 minutes (for histamine and lipid mediator assessment) or overnight (for cytokine assessment). Culture supernatants were collected and assayed for histamine (Oxford Biomedical Research, Rochester Hills, Mich.), PGD2 and LTC4 (Cayman Chemical Company, Ann Arbor Mich.), and IL-5 and IL-13 (Bio-Rad Bio-Plex Pro cytokine quantification kit) release as per kits' instructions.

Row | SMILES | reduction of release of mediators into the supernatant, efficacy
1 | CN1CCC(c2ccc(Nc3cc(-c4ccnc(-n5ncc6cc(C(C)(C)C)cc(F)c6c5=O)c4CO)nn(C)c3=O)nc2)CC1 [Compound 1, 6-tert-Butyl-8-fluoro-2-{3-hydroxymethyl-4-[1-methyl-5-(1′-methyl-1′,2′,3′,4′,5′,6′-hexahydro-[3,4′]bipyridinyl-6-ylamino)-6-oxo-1,6-dihydro-pyridazin-3-yl]-pyridin-2-yl}-2H-phthalazin-1-one] | up to 100%
2 | Cn1nc(Nc2cc(-c3cccc(-n4ccc5cc(C(C)(C)C#N)cc(F)c5c4=O)c3CO)nn(C)c2=O)cc1CN1CCC1 [Compound 2, 2-(2-{3-[5-(5-Azetidin-1-ylmethyl-1-methyl-1H-pyrazol-3-ylamino)-1-methyl-6-oxo-1,6-dihydro-pyridazin-3-yl]-2-hydroxymethyl-phenyl}-8-fluoro-1-oxo-1,2-dihydro-isoquinolin-6-yl)-2-methyl-propionitrile] | up to 100%
3 | COCCNCc1ccc(Nc2cc(-c3cccc(N4CCc5cc(C(C)(C)C)ccc5C4=O)c3CO)cn(C)c2=O)nc1 [Compound 3, 6-tert-Butyl-2-[2-hydroxymethyl-3-(5-{5-[(2-methoxy-ethylamino)-methyl]-pyridin-2-ylamino}-1-methyl-6-oxo-1,6-dihydro-pyridin-3-yl)-phenyl]-3,4-dihydro-2H-isoquinolin-1-one] | up to 100%
